Source: the supplement of paper PMC12823440, “Inhibitors supercharge kinase turnover through native proteolytic circuits” (Nature, 2025)
Counter-ions that a name gives are not always drawn. The list shows a part of the results. The calls rarely recur for the same compound in another form.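 Kinases, fused to nanoluciferase, were expressed in K562 cells; luminescence was measured every 4 h from 2 to 18 h as percent of control (DMSO = 100%, positive control = 0%). A time point is decreased if signal falls significantly (2 sigma). Hits were called by the authors by a rule that is not shown; the count of time points alone does not decide it.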

Protein sequences, listed by entry. Tags and fused reporters are not part of them. Lines headed by an entry give the natural chain unless they say otherwise; changes in a name come on top.
UniProt Q01974, whole entry: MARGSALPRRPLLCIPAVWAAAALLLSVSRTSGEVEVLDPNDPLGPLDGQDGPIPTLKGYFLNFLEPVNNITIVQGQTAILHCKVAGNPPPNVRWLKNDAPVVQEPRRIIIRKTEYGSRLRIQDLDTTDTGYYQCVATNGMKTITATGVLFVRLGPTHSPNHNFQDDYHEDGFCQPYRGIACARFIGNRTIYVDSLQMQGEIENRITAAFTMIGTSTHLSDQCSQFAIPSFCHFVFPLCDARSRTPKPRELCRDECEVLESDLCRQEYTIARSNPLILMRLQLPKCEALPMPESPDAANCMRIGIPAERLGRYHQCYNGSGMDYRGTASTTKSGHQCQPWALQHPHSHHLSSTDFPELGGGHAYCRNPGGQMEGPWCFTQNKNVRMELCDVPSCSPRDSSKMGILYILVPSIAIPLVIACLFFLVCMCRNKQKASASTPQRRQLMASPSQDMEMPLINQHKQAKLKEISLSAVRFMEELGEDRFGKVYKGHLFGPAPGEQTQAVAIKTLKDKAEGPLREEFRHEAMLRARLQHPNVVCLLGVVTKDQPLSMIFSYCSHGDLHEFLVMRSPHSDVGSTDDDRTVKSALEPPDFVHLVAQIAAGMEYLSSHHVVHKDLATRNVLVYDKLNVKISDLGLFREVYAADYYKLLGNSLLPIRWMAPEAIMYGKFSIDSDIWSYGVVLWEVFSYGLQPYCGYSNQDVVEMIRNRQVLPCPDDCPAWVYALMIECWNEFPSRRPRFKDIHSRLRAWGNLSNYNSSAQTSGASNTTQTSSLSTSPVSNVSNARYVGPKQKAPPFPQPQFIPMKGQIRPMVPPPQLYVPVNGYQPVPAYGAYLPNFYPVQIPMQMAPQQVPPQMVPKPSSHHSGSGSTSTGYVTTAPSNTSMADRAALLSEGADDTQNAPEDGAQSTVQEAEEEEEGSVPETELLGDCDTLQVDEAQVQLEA
UniProt Q15418, whole entry: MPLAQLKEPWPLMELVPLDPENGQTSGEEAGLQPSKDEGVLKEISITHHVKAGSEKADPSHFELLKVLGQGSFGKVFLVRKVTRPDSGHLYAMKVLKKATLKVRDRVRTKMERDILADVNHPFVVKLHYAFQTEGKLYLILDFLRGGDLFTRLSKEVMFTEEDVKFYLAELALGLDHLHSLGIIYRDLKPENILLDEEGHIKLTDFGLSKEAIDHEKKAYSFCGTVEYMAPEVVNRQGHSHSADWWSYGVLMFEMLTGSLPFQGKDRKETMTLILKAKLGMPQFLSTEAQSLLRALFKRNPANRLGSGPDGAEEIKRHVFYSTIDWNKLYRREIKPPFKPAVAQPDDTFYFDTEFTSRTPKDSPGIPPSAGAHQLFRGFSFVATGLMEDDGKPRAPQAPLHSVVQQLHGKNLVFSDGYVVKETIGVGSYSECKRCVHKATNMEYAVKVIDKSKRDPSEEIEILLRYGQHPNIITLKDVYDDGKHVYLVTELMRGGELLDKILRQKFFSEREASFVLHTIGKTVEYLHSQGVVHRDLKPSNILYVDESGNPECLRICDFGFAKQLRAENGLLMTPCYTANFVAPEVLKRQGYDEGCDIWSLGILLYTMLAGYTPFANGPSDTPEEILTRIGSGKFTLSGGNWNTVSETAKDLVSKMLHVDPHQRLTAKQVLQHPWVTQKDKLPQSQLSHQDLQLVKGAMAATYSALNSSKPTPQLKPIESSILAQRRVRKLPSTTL
UniProt Q9NYA1, whole entry: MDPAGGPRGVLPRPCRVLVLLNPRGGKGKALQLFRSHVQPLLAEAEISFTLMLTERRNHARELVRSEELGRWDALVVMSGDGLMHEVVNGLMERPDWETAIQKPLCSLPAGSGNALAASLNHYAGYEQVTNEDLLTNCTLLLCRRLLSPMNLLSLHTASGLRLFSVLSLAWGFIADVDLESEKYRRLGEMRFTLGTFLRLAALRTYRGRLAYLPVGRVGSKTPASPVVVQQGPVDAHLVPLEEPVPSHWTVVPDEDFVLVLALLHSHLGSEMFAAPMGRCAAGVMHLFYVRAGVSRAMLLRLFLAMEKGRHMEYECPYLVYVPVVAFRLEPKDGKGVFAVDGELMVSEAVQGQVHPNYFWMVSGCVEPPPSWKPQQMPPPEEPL
UniProt Q15208: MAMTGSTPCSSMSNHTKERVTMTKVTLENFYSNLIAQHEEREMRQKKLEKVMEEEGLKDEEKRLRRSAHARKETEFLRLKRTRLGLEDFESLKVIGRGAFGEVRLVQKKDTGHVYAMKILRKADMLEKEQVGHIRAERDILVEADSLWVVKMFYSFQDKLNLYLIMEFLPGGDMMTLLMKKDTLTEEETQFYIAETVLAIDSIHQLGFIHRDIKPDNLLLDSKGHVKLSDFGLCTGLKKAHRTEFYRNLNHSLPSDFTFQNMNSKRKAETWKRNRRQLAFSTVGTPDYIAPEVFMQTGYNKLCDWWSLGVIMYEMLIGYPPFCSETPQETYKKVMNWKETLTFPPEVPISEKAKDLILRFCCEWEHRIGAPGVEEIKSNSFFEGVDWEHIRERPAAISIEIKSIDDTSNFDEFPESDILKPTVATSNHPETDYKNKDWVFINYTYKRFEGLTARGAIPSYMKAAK
UniProt P42680: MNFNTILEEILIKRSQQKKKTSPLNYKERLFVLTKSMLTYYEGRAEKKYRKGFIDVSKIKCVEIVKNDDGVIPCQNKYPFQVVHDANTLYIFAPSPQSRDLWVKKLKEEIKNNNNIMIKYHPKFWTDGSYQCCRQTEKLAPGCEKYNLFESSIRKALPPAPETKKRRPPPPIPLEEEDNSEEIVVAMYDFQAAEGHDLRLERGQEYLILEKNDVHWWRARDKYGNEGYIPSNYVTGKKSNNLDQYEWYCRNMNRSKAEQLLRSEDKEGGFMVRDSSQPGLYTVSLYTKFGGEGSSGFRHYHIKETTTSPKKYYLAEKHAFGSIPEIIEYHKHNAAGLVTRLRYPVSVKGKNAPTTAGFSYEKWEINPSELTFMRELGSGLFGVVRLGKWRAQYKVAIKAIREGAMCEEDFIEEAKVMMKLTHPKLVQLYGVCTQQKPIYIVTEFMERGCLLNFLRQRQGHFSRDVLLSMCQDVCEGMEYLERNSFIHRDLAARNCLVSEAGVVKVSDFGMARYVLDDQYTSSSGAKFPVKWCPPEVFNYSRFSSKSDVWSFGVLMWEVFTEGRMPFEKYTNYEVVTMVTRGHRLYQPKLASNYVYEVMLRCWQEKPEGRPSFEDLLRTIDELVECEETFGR
UniProt P29597: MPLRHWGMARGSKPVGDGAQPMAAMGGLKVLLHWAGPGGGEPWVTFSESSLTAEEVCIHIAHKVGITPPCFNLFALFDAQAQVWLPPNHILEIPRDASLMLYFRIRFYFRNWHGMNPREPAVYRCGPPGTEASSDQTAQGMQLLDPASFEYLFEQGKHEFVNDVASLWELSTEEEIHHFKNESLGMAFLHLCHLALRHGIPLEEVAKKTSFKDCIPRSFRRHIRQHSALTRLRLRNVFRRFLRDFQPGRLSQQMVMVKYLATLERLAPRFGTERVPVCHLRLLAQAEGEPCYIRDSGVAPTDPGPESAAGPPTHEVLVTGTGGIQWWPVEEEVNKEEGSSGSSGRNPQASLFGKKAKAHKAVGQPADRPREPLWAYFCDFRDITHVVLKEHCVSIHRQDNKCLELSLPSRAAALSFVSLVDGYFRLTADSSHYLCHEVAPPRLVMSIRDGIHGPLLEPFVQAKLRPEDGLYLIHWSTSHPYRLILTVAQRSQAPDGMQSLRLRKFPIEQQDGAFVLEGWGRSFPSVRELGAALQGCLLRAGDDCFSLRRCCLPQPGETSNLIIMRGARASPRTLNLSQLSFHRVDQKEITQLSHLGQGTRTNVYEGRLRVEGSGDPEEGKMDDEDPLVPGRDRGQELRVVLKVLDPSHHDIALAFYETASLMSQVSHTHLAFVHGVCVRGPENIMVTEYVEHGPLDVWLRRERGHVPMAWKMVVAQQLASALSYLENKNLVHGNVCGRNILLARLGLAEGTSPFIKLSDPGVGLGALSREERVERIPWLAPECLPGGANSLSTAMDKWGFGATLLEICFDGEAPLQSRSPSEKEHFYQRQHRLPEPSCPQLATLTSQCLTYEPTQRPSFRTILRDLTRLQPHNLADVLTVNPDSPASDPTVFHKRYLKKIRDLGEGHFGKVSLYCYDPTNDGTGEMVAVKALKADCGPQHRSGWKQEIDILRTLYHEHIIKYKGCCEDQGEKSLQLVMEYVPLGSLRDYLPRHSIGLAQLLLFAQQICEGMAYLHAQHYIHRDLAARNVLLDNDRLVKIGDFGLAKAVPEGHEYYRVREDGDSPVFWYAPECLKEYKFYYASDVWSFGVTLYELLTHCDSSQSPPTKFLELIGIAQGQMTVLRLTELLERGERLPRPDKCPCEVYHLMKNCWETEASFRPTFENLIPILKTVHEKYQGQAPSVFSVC
UniProt Q6PHR2: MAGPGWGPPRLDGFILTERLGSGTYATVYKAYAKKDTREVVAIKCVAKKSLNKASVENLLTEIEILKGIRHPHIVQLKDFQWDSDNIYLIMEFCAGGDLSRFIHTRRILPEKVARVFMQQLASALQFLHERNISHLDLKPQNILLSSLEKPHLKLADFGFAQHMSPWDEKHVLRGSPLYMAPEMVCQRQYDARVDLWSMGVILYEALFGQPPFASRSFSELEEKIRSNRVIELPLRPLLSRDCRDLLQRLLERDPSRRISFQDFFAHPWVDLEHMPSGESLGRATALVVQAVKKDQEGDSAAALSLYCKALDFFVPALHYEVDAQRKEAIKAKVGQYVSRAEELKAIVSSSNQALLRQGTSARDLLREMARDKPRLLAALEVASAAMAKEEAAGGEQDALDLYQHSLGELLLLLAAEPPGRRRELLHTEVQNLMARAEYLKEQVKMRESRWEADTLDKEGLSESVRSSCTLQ
UniProt P07947, whole entry, looked up: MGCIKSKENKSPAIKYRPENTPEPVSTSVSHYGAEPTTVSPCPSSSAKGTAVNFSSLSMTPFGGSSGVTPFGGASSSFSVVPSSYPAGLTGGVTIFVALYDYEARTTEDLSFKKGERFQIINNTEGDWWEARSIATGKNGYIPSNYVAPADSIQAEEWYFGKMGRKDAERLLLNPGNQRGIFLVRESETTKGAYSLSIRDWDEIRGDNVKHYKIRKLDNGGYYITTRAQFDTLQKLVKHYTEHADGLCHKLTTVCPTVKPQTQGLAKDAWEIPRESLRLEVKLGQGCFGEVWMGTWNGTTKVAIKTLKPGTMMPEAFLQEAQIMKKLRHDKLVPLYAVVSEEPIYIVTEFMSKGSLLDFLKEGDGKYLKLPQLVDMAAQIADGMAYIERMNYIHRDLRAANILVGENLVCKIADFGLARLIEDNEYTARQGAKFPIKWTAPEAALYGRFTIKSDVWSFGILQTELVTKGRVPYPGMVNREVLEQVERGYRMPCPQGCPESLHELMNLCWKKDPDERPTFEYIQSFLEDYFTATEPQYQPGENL
UniProt P43403: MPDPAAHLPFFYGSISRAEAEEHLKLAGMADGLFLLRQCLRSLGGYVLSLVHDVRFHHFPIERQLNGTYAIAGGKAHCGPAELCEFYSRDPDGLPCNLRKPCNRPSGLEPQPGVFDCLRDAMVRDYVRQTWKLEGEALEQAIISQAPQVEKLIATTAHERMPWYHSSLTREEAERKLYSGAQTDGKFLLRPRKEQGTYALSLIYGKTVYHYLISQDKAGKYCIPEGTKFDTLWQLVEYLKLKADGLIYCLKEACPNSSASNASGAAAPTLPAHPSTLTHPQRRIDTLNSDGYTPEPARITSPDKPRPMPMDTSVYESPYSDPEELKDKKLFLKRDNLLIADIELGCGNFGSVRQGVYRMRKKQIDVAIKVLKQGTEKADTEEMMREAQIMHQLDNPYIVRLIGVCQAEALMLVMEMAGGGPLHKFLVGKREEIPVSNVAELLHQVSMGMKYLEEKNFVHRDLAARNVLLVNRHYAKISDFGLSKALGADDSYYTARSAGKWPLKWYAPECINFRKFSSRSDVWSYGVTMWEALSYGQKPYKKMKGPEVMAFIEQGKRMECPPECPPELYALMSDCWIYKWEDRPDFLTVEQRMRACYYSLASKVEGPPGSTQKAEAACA
UniProt P11802: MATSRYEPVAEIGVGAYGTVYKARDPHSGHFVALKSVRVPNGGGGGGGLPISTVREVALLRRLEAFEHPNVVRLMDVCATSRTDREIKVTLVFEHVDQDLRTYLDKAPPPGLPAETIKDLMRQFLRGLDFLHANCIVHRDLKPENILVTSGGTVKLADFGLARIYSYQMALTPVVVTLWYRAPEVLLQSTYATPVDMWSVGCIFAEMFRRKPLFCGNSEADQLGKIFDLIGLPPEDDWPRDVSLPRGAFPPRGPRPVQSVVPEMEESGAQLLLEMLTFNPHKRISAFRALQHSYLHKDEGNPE

How the values were obtained:
Settings in all cases: K562; 2-18 h
[1] = molecular target: ROR2 (UniProt Q01974); test: number of time points (of 5) at which kinase-Nluc abundance scored as decreased, DMSO-normalised (count); higher = more persistent destabilization
[2] = molecular target: RPS6KA1 (UniProt Q15418); test: as above
[3] = molecular target: SPHK1 (UniProt Q9NYA1); test: as above
[4] = molecular target: SRC (UniProt P12931); test: as above
[5] = molecular target: STK24 (UniProt Q9Y6E0); test: as above
[6] = molecular target: STK38 (UniProt Q15208); test: as above
[7] = molecular target: SYK (UniProt P43405); test: as above
[8] = molecular target: TEC (UniProt P42680); test: as above
[9] = molecular target: TYK2 (UniProt P29597); test: as above
[10] = molecular target: ULK3 (UniProt Q6PHR2); test: as above
[11] = molecular target: YES1 (UniProt P07947); test: as above
[12] = molecular target: ZAK (UniProt Q9NYL2); test: as above
[13] = molecular target: ZAP70 (UniProt P43403); test: as above
[14] = molecular target: CDK4 (UniProt P11802); test: number of time points (of 4; 2 h point missing) at which kinase-Nluc abundance scored as decreased, DMSO-normalised (count); higher = more persistent destabilization
[15] = molecular target: CDK7 (UniProt P50613); test: as above
[16] = molecular target: CDK9 (UniProt P50750); test: as above

Measured: number of time points

CS(=O)(=O)c1cccc(CNc2nc(Nc3ccc4c(c3)CCC(=O)N4)ncc2C(F)(F)F)c1 (10 µM)
0: all assays above

CCOC(=O)c1c(Nc2ccccc2Cl)oc(/C=C2\C=Nc3ncccc32)c1O (10 µM)
0: all assays above

CCOC(=O)c1c(C)[nH]c(C=C2C(=O)Nc3ccccc32)c1C (10 µM)
not listed: [6]
0: all other assays above

CC(C)c1cc2c(c(O)c1O)[C@@]13CCCC(C)(C)[C@@H]1C[C@@H]2OC3=O [Carnosol] (2.5 µM)
0: all assays above

CC1(C)CN(C(=O)c2ccc(-c3cccc4nc(NC(=O)C5CC5)nn34)cc2)C1 [Solcitinib] (10 µM)
not listed: [6]
0: all other assays above

CN(C[C@@H]1COCCO1)S(=O)(=O)Nc1ccc2ccc3ncc(-c4cnn(C)c4)cc3c(=O)c2c1 (2.5 µM)
0: all assays above

O=[N+]([O-])c1ccc(-c2nc(-c3ccc(F)cc3)c(-c3ccncc3)[nH]2)cc1 (10 µM)
5: [3] | [9]
1: [6] | [14]
0: all other assays above

CC1=CC(=O)C(C(C)C)=C/C1=N/OC(=O)c1ccccc1C [Poloxin] (2.5 µM)
0: all assays above

S=C(NCc1ccc2c(c1)OCO2)N1CCN(c2ncnc3c2oc2ccccc23)CC1 [Amuvatinib] (2.5 µM)
0: all assays above

CCc1cc(Nc2nccc(-c3c(-c4ccc(OC)c(C(=O)Nc5c(F)cccc5F)c4)nc4ccccn34)n2)c(OC)cc1N1CCC(N2CCN(S(C)(=O)=O)CC2)CC1 (2.5 µM)
0: all assays above

CS(=O)(=O)c1ccc([C@@H](CC2CCCC2)C(=O)Nc2nccs2)cc1 (10 µM)
0: all assays above

Cc1ccc(Nc2cc(N[C@@H]3CCCC[C@@H]3N)nnc2C(N)=O)nc1C (2 µM)
not listed: [7]
0: all other assays above

CCOc1cc(=O)[nH]cc1-c1ccc(CC(=O)Nc2cc(C(C)(C)C(F)(F)F)on2)c(F)c1 (10 µM)
0: all assays above

COc1c(O)cc(O)c2c(=O)cc(-c3ccccc3)oc12 [Wogonin] (10 µM)
0: all assays above

CC(=O)Nc1nc(C)c(-c2cc(C)c3c(c2)CN([C@@H](C)C2CC2)C3=O)s1 (10 µM)
0: all assays above

O=C1NC(=O)C(Cc2c[nH]c3c(Cl)cccc23)N1 (centres undefined) [Necroptosis-IN-1] (10 µM)
0: all assays above

C[C@@H]1COC(Nc2ccc3ncnc(Nc4ccc(OCc5nccs5)c(Cl)c4)c3c2)=N1 [Varlitinib] (10 µM)
1: [16]
0: all other assays above

COc1cc(N2CCC(O)CC2)ccc1Nc1nc(Nc2ccccc2S(=O)(=O)C(C)C)c2[nH]cnc2n1 (10 µM)
0: all assays above

CN1CCC(Nc2nc(Nc3ccc(Oc4ccccc4)cc3)c3c(=O)[nH]cc(Br)c3n2)CC1 (2.5 µM)
4: [9]
3: [3] | [6]
0: all other assays above

NC(=O)c1ccccc1Nc1ccnc(Nc2cccc(O)c2)n1 (10 µM)
3: [15]
4: [9]
1: [6] | [11]
2: [8]
0: all other assays above

Cc1cnc(Nc2ccc(F)cc2Cl)nc1-c1c[nH]c(C(=O)N[C@H](CO)c2cccc(Cl)c2)c1 (10 µM)
not listed: [7]
0: all other assays above

COc1ccc(Cl)cc1N(CC(=O)Nc1ccc2c(c1)OCO2)S(=O)(=O)c1ccccc1 (2.5 µM)
0: all assays above

C=CC(=O)Nc1cc(Nc2nccc(-c3cn(C)c4ccccc34)n2)c(OCC(F)(F)F)nc1N(C)CCNC [AST5902  (trimesylate)] (2.5 µM)
4: [10]
1: [6]
0: all other assays above

COc1cc2c(cc1OC)[C@@H]1C(=O)c3ccc4c(c3O[C@@H]1CO2)C=CC(C)(C)O4 [Deguelin] (10 µM)
0: all assays above

Cn1cc(-c2nc(N[C@@H]3CCCC[C@@H]3N)c(F)c3c2C(=O)NC3)cn1 [TAK-659 (hydrochloride)] (2 µM)
not listed: [7]
0: all other assays above

CCC[C@H](C)Oc1nc(N)c2[nH]c(=O)n(CCCCCN3CCCCC3)c2n1 (10 µM)
0: all assays above

CCc1c(C(=O)NNC(=O)[C@H](O)c2cc(F)cc(F)c2)ccc(O)c1C (10 µM)
not listed: [14]
0: all other assays above

O=C(Nc1ccc(Cl)cc1)C1CN(C(=O)c2cccc(-c3ccco3)c2)CC(F)(F)C1 (centres undefined) (2.5 µM)
0: all assays above

CCNC(=O)Nc1ccc(-c2nc3c(c(N4CCOC[C@@H]4C)n2)CCN(C2COC2)C3)cc1 (2.5 µM)
1: [10]
not listed: [4] | [9]
0: all other assays above

O=C(NCc1ccn[nH]1)c1cc([C@@H]2CCNC[C@H]2COc2ccc3c(c2)OCO3)ccc1F [GRK2-IN-1 (hydrochloride)] (10 µM)
0: all assays above

Cc1n[nH]c2ncc(C(=O)N3CCC[C@H]3c3ccc(Cl)cc3)cc12 (10 µM)
0: all assays above

Cc1ncc(-c2cc(F)c(O)c(F)c2)cc1-c1cc(F)c(O)c(F)c1 (10 µM)
0: all assays above

COc1cc2nccc(Nc3cccc(Oc4ccccc4)c3)c2cc1OC (2.5 µM)
not listed: [6]
0: all other assays above

NC(=O)c1cnc(N[C@@H]2CCCC[C@@H]2N)nc1Nc1cccc(-n2nccn2)c1 (2.5 µM)
not listed: [7]
0: all other assays above
